Source: article PMC10493204
No constants are given. Whether binding was seen depends on the method and setting. Binding seen in cells or lysates may run through a third protein. These calls come from enrichment with a bait or labelling near it, and not all partners need be listed.

Protein sequences, listed by entry. Tags and fused reporters are not part of them. Lines headed by an entry give the natural chain unless they say otherwise; changes in a name come on top.
UniProt Q99N13: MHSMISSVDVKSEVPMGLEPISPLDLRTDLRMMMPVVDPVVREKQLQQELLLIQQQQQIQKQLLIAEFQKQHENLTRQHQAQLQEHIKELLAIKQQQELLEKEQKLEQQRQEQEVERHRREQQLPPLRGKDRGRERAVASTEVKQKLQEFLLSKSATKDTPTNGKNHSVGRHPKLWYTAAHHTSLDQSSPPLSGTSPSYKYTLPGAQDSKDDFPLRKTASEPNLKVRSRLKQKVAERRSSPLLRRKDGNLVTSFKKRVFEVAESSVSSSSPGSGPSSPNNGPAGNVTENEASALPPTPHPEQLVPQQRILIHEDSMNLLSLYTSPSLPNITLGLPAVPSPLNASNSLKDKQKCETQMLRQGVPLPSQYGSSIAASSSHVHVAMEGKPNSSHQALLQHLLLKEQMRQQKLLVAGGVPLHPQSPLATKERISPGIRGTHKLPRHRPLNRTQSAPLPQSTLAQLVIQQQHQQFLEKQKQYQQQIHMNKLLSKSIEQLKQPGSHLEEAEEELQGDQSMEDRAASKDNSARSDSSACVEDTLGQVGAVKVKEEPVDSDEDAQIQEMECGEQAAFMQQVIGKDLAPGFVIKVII
UniProt Q61879: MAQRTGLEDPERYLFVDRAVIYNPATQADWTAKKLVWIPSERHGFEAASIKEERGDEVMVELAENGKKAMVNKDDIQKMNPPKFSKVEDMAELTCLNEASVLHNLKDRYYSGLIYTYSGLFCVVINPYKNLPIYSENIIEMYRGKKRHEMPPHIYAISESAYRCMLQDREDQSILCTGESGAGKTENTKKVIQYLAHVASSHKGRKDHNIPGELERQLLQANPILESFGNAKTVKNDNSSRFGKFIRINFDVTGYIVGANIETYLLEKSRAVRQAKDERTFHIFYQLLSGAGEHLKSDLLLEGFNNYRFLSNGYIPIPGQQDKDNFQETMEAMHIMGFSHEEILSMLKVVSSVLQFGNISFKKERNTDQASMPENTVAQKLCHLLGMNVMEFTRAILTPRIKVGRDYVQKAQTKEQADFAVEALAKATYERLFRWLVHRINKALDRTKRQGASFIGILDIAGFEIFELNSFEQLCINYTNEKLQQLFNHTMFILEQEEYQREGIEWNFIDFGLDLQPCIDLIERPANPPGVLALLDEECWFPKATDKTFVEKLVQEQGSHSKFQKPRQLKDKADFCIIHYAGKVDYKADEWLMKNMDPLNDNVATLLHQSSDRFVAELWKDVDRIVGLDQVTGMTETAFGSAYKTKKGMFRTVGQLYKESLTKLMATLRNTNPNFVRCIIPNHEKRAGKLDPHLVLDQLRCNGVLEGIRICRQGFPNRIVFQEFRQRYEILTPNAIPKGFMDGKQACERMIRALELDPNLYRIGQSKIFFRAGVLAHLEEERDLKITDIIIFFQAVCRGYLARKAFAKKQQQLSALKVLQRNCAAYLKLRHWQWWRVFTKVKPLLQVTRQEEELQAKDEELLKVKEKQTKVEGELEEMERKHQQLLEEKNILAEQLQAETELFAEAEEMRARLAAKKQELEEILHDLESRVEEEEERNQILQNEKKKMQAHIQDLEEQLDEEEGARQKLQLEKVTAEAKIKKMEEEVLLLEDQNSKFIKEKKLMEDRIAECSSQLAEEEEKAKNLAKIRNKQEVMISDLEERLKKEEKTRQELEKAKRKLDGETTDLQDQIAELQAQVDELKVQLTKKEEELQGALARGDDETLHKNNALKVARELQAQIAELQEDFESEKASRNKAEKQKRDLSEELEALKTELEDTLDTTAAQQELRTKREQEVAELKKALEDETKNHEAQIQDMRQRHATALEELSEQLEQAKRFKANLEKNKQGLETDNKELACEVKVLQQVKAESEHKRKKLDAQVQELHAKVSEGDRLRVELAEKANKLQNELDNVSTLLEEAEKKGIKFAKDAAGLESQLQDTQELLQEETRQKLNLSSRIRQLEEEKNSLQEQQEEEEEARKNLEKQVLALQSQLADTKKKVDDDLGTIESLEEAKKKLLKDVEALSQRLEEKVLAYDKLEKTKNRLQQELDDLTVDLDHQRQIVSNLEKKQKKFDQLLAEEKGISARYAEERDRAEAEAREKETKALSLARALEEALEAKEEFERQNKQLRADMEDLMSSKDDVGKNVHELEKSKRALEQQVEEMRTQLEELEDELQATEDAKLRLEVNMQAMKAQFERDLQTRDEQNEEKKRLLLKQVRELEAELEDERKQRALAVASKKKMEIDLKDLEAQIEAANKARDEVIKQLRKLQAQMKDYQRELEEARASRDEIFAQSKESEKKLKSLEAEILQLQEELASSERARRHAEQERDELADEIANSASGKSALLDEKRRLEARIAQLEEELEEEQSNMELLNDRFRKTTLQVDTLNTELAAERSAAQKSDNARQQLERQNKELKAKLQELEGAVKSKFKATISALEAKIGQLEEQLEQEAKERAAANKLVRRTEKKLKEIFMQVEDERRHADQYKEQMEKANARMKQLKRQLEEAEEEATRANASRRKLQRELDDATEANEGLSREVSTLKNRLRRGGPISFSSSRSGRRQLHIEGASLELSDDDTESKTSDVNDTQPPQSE
UniProt P07356: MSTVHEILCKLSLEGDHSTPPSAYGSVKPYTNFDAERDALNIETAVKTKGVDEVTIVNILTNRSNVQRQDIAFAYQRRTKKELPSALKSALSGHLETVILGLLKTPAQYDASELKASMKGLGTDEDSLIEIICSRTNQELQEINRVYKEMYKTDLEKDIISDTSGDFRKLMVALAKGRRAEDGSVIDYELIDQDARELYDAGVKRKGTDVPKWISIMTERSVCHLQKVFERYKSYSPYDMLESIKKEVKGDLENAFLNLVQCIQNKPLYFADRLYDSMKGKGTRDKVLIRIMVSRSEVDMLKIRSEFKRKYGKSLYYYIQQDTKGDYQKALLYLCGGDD

Molecular target: Histone deacetylase 9 (mouse (endogenous in hippocampus)) (UniProt Q99N13)
Test: affinity purification with mass spectrometry; immunoprecipitation of HDAC9 from hippocampus of mice exposed or not to CRS, mass spectrometry of the co-immunoprecipitated proteins

binding | Substance
binds | Myh10 (from UniProt Q61879 1-1976)
binds | Annexin A2 (from UniProt P07356 1-339)
